# The supplement of paper PMC5836539
# Sequences of proteins named here, by UniProt entry; tags and fusion partners are left off. A change or cut given only in a name is not applied to a line headed by its entry.
# UniProt P46060: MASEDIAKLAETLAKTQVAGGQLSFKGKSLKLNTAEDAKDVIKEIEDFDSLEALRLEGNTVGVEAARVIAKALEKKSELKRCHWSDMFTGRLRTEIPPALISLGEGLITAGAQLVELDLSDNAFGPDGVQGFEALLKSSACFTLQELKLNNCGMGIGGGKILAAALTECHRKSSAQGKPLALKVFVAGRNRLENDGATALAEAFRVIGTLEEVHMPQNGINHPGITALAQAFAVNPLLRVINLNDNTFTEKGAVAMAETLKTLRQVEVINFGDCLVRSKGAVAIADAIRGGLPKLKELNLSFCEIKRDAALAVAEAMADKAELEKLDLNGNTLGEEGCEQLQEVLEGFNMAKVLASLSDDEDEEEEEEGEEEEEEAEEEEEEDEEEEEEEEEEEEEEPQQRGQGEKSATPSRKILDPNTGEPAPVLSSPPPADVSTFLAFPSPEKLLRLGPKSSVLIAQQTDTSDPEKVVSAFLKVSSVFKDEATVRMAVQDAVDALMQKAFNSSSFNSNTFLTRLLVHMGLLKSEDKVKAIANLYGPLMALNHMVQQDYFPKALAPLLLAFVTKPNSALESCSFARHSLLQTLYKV
# UniProt Q13185: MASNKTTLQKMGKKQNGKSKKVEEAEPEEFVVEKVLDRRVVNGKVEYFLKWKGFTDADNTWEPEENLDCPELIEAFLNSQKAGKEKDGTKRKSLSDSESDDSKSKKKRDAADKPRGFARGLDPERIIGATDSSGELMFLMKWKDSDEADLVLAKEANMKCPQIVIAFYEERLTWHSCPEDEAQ
# UniProt P78527, whole entry: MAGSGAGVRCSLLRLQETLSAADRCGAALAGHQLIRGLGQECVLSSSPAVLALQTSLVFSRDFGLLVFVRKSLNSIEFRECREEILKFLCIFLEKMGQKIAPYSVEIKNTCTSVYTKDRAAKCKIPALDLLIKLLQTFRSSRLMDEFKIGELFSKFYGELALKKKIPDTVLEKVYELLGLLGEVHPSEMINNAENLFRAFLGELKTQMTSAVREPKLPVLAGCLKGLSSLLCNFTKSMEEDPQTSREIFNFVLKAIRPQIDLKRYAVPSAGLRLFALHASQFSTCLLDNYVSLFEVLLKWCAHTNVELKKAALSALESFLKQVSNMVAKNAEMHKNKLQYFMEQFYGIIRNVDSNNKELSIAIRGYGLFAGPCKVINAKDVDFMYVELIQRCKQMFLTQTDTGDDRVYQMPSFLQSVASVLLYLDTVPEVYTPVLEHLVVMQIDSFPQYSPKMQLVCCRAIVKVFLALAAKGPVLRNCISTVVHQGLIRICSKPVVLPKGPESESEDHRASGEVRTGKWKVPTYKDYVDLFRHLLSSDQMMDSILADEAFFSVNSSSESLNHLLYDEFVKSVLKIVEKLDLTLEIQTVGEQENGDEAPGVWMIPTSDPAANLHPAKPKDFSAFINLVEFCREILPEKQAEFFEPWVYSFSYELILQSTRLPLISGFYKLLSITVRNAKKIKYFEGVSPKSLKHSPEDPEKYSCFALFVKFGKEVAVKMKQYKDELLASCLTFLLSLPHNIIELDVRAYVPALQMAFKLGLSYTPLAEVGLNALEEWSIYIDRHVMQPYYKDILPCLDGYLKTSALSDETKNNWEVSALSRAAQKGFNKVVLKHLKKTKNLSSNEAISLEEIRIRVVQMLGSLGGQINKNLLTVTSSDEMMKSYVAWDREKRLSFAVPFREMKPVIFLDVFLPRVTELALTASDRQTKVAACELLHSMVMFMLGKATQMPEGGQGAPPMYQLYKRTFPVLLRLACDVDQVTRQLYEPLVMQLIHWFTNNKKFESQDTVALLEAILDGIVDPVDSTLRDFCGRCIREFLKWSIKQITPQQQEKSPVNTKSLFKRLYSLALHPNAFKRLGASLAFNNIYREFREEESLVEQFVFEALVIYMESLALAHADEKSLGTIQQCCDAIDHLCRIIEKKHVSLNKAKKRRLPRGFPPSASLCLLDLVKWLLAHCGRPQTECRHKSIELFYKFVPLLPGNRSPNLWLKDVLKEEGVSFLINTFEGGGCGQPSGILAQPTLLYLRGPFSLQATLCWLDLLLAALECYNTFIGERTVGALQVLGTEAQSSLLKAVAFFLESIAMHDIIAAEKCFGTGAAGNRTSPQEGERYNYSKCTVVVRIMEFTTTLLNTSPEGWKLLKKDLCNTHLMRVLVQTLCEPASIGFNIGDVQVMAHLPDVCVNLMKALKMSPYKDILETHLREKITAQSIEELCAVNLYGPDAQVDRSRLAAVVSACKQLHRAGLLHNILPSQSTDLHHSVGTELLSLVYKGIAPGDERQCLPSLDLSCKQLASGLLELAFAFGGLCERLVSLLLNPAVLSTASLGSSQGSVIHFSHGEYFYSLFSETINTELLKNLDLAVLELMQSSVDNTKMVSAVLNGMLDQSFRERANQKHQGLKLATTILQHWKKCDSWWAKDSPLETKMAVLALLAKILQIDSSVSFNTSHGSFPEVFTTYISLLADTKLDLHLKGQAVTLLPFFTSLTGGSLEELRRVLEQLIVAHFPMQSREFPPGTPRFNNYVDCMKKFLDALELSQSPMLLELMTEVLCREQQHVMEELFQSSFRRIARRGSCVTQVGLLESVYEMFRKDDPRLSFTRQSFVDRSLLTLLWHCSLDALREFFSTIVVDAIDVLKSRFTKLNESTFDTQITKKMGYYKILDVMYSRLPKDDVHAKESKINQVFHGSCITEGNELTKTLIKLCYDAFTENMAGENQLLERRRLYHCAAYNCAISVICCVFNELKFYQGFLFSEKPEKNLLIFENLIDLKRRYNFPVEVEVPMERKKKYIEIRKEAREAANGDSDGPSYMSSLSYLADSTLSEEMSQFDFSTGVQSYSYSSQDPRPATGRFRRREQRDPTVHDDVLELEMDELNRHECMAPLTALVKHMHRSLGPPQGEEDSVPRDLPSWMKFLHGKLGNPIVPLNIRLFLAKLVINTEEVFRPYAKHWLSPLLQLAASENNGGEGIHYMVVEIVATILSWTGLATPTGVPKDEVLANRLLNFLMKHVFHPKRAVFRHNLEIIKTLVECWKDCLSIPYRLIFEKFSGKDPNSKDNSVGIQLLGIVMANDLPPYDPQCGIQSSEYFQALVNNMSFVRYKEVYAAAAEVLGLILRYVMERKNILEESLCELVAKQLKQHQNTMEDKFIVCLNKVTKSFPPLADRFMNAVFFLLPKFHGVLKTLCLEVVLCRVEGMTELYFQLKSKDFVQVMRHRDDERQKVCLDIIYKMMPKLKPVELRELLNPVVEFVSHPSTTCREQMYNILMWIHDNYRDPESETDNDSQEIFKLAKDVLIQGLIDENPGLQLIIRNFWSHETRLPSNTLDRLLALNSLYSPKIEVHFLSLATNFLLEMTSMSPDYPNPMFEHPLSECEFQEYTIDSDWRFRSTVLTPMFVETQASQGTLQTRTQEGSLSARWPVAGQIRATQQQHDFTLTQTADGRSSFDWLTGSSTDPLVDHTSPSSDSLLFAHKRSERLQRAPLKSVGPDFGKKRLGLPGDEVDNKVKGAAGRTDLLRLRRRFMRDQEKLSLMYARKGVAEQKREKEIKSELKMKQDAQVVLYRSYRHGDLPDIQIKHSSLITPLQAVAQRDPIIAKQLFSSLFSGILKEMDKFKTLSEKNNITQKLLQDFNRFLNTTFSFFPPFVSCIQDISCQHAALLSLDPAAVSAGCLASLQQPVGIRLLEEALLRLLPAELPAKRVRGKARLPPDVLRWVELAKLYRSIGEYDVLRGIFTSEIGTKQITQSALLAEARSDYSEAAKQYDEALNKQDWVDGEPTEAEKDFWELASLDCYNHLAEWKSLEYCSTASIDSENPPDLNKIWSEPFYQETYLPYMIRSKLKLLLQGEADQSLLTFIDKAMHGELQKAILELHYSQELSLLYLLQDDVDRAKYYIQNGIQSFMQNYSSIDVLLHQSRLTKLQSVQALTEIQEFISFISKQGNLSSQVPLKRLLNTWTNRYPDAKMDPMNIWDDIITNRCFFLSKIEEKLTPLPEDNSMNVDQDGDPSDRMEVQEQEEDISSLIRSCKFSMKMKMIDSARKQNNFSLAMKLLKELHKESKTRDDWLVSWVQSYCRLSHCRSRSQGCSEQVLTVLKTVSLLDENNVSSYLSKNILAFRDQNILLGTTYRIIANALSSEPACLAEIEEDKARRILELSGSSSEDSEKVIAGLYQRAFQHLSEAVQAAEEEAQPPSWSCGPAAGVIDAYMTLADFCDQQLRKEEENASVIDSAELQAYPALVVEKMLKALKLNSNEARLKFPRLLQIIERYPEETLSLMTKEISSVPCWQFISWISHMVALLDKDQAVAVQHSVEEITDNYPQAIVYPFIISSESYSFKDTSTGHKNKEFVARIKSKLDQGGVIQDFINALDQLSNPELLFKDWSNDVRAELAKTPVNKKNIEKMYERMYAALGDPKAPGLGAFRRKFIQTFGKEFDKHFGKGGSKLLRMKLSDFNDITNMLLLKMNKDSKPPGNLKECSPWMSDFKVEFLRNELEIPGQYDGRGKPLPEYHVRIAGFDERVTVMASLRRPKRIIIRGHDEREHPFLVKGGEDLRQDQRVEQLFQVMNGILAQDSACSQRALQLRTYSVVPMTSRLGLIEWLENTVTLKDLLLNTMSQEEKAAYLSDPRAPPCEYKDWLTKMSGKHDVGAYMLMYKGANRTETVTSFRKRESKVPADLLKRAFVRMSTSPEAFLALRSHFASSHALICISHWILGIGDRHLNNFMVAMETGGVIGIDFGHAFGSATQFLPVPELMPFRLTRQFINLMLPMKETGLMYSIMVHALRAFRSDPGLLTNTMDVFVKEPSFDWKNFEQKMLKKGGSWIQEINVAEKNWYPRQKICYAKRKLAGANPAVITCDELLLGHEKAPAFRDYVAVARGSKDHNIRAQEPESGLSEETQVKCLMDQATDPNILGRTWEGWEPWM
# UniProt Q9NVM6: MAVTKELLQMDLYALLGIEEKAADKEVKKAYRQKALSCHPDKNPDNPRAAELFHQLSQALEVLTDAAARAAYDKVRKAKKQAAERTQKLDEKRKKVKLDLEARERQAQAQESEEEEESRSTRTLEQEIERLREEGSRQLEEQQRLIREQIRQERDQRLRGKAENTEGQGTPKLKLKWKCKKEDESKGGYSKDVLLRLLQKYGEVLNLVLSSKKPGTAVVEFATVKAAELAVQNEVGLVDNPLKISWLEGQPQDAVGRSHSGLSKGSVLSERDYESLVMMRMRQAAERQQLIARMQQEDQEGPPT
# UniProt O94885: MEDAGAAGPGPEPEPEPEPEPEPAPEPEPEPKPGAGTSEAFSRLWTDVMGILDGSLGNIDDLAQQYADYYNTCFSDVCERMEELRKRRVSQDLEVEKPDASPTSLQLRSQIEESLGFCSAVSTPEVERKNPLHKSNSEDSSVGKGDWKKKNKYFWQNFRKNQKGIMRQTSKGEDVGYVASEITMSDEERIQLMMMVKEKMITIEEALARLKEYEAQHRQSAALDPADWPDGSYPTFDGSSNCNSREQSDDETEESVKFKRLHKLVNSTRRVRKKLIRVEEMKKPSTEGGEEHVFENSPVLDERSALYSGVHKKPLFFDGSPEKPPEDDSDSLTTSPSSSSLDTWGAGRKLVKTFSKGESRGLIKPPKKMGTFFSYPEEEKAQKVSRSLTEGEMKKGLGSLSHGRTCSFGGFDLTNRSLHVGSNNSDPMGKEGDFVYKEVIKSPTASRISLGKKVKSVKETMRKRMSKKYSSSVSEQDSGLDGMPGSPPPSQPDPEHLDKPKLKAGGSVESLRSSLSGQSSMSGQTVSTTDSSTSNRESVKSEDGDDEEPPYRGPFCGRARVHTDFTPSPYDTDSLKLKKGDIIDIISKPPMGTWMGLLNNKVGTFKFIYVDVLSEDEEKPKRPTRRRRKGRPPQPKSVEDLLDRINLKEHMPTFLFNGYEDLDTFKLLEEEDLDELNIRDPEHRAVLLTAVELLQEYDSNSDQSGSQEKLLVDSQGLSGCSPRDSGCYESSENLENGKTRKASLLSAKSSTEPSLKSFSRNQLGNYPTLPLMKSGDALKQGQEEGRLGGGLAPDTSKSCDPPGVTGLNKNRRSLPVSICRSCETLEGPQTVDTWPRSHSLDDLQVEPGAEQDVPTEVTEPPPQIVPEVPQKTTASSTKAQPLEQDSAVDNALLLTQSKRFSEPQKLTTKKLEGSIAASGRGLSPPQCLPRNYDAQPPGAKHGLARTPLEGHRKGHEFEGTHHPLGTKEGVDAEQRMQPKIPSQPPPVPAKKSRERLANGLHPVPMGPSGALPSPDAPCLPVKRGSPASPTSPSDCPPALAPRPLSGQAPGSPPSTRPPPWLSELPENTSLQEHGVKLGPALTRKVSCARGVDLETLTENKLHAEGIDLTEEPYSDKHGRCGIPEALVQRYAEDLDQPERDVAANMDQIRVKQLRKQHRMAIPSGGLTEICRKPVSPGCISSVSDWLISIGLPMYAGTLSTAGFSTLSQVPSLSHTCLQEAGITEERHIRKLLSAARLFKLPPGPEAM
# ± gives the standard deviation of the averaged measurements. Most values lie within the scatter of the assay; repeated measurements hardly agree.
# Compound: CC[C@@H](C)Nc1cc(C(=O)N[C@H]2C[C@H]3CC[C@@H](C2)N3c2ccc(C(=O)C3CC3)cn2)c(C)cc1C(N)=O [XL888]
# Assay: phosphopeptide melting temperature shift (XL888 minus DMSO); higher = stabilised by drug treatment
# Conditions: 100 µM; treatment time 2 h; layout: intact cells; SK-Mel 28
# Procedure: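 Phospho-TPP in intact SK-Mel 28 cells treated with 100 uM XL888 or DMSO for 2 h, heated at 10 temperatures (37-67 C) for 3 min, soluble fraction TMT10plex-labelled and TiO2 phospho-enriched. Melting curves were fitted per phosphopeptide; the value is the melting point difference (drug minus vehicle) in each of two biological replicates.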
row,Target,phosphopeptide melting temperature shift [°C]
1,UniProt Q15637-4_phosphosite_82 (phosphosite position: 82),-1.48 ± 0.59
2,BRD9 phosphosite_103 (phosphosite position: 103) (UniProt Q9H8M2),4.03
3,UniProt Q0JRZ9-3_phosphosite_370 (phosphosite position: 370),1.09
4,KMT2D phosphosite_4738 (phosphosite position: 4738) (UniProt O14686),1.24
5,UniProt Q05209-2_phosphosite_478 (phosphosite position: 478),0.635
6,UniProt Q8N4C8-4_phosphosite_758 (phosphosite position: 758),1.48
7,UniProt Q9Y2U5_phosphosite_331 (phosphosite position: 331),0.74 ± 0.89
8,SLC4A1AP phosphosite_712 (phosphosite position: 712) (UniProt Q9BWU0),1.86 ± 1.1
9,UniProt O14974-4_phosphosite_409 (phosphosite position: 409),-2.35
10,NCOA5 phosphosite_29 (phosphosite position: 29) (UniProt Q9HCD5),2.55
11,GPHN phosphosite_305 (phosphosite position: 305) (UniProt Q9NQX3),3.39
12,UniProt P51114-2_phosphosite_409 (phosphosite position: 409),0.45
13,UniProt Q9BXP5-5_phosphosite_67 (phosphosite position: 67),0.255 ± 0.34
14,UniProt O94979-3_phosphosite_1049 (phosphosite position: 1049),3.71
15,RANGAP1 phosphosite_428 (phosphosite position: 428) (UniProt P46060),-0.0982 ± 0.43
16,TRAFD1 phosphosite_414 (phosphosite position: 414) (UniProt O14545),2.77
17,UniProt Q9NYV4-2_phosphosite_644 (phosphosite position: 644),-0.194 ± 0.62
18,UniProt Q86YS7_phosphosite_662 (phosphosite position: 662),-0.15
19,UniProt O75179-4_phosphosite_1474 (phosphosite position: 1474),0.276
20,UniProt Q13563-3_phosphosite_756 (phosphosite position: 756),-2.5
21,PPFIBP2 phosphosite_363 (phosphosite position: 363) (UniProt Q8ND30),3.62
22,UniProt Q9Y520-6_phosphosite_926 (phosphosite position: 926),0.194 ± 1.3
23,CPSF2 phosphosite_420 (phosphosite position: 420) (UniProt Q9P2I0),1.13

row,Target,phosphopeptide melting temperature shift [°C]
1,NUP88 phosphosite_517 (phosphosite position: 517) (UniProt Q99567),-0.59
2,MAP1B phosphosite_1620 (phosphosite position: 1620) (UniProt P46821),-1.16 ± 1.4
3,UniProt Q9H4A3-2_phosphosite_1785 (phosphosite position: 1785),0.414 ± 0.42
4,AKAP11 phosphosite_1337 (phosphosite position: 1337) (UniProt Q9UKA4),0.362 ± 0.2
5,TJP1 phosphosite_131 (phosphosite position: 131) (UniProt Q07157),0.597 ± 0.074
6,LIMA1 phosphosite_225 (phosphosite position: 225) (UniProt Q9UHB6),2.97 ± 0.65
7,UniProt A3KN83-3_phosphosite_695 (phosphosite position: 695),1.18
8,CAPZA1 phosphosite_63 (phosphosite position: 63) (UniProt P52907),-1.76
9,CBX3 phosphosite_176 (phosphosite position: 176) (UniProt Q13185),3.98
10,CBX3 phosphosite_93 (phosphosite position: 93) (UniProt Q13185),0.434 ± 0.56
11,EIF2S2 phosphosite_2 (phosphosite position: 2) (UniProt P20042),-0.627
12,IWS1 phosphosite_248 (phosphosite position: 248) (UniProt Q96ST2),1.46
13,PIK3R4 phosphosite_813 (phosphosite position: 813) (UniProt Q99570),2.77
14,UniProt Q641Q2-2_phosphosite_620 (phosphosite position: 620),-0.191 ± 0.27
15,UniProt O94842-3_phosphosite_152 (phosphosite position: 152),0.478
16,HTT phosphosite_419 (phosphosite position: 419) (UniProt P42858),1.09
17,UniProt Q86UE8-2_phosphosite_117 (phosphosite position: 117),2.57
18,TP53BP1 phosphosite_552 (phosphosite position: 552) (UniProt Q12888),2.28 ± 0.59
19,UniProt Q5T4S7-3_phosphosite_1763 (phosphosite position: 1763),1.87 ± 1.6
20,UniProt P11137-3_phosphosite_1786 (phosphosite position: 1786),6.3 ± 0.54
21,UniProt Q3YEC7_phosphosite_641 (phosphosite position: 641),0.122 ± 0.35
22,RBM12B phosphosite_280 (phosphosite position: 280) (UniProt Q8IXT5),1.65 ± 0.53
23,MAP1B phosphosite_1396 (phosphosite position: 1396) (UniProt P46821),-1.11 ± 1.8

# Laid out differently: results already given
row | Target | phosphopeptide melting temperature shift [°C]
5 | UniProt Q05209-2_phosphosite_478 (phosphosite position: 478) | 0.635
6 | UniProt Q8N4C8-4_phosphosite_758 (phosphosite position: 758) | 1.48
7 | UniProt Q9Y2U5_phosphosite_331 (phosphosite position: 331) | 0.74 ± 0.89
8 | SLC4A1AP phosphosite_712 (phosphosite position: 712) (UniProt Q9BWU0) | 1.86 ± 1.1
9 | UniProt O14974-4_phosphosite_409 (phosphosite position: 409) | -2.35

# Continued:

row,Target,phosphopeptide melting temperature shift [°C]
1,UniProt Q9P2D0-2_phosphosite_1045 (phosphosite position: 1045),3.8
2,UniProt P21333-2_phosphosite_2171 (phosphosite position: 2171),1.25 ± 0.25
3,UniProt P78527_phosphosite_3205 (phosphosite position: 3205),-2.44 ± 1
4,UniProt Q93008-1_phosphosite_1609 (phosphosite position: 1609),0.656
5,UniProt Q9Y2I7_phosphosite_307 (phosphosite position: 307),0.877 ± 0.26
6,UniProt Q8WWI1-3_phosphosite_246 (phosphosite position: 246),3.54
7,CHD4 phosphosite_531 (phosphosite position: 531) (UniProt Q14839),0.724
8,UniProt O95453-2_phosphosite_558 (phosphosite position: 558),0.374 ± 0.43
9,DNAJC17 phosphosite_112 (phosphosite position: 112) (UniProt Q9NVM6),5.79
10,EEF2K phosphosite_474 (phosphosite position: 474) (UniProt O00418),0.963
11,UniProt Q8WVC0-2_phosphosite_220 (phosphosite position: 220),1.7
12,UniProt Q00613-2_phosphosite_314 (phosphosite position: 314),1.22
13,HTATSF1 phosphosite_713 (phosphosite position: 713) (UniProt O43719),1.54 ± 0.45
14,UniProt P20810-9_phosphosite_408 (phosphosite position: 408),0.896 ± 0.6
15,SASH1 phosphosite_813 (phosphosite position: 813) (UniProt O94885),-0.538
16,UniProt Q01484-5_phosphosite_1815 (phosphosite position: 1815),0.0837
17,GSDMD phosphosite_252 (phosphosite position: 252) (UniProt P57764),0.921 ± 0.44
18,UniProt Q9UPN3-4_phosphosite_5242 (phosphosite position: 5242),0.954
19,UniProt Q9UEW8-2_phosphosite_366 (phosphosite position: 366),1.34
20,UniProt Q13425-2_phosphosite_233 (phosphosite position: 233),1.58
21,SQSTM1 phosphosite_332 (phosphosite position: 332) (UniProt Q13501),0.0931 ± 0.48
